Data from PubChem BioAssay AID540256 (National Center for Advancing Translational Sciences (NCATS), 2011).
The whole screen tested about 300,000 compounds, of which about 3,700 (1.2%) were called active. This list was built around the results that the source calls inconclusive (neither active nor inactive); the mix of calls is not that of the screen. The call rests on the fitted dose curve; tested in HEK293 cells. Potencies beside an inconclusive call are fits to weak or partial responses and may not hold up.
Potency means the concentration at half of the fitted maximal effect.

Experiment: qHTS for Inhibitors of binding or entry into cells for Lassa Virus; further: nearly all actives have a fitted effect of over 50% in size
Details: Lassa virus pseudotype entry inhibition, cell reporter; series mostly up to 37.9 µM
With `CC1=C(C(=O)Nc2cccc(C(F)(F)F)c2)C2(CCN(C(C)C)CC2)OC1=O` the Potency was inconclusive: 3.55 µM [activator, single point]. For `COc1cccc(CNC(=O)CCC2CCCN(Cc3cc(Cl)ccc3O)C2)c1` (stereo not drawn), the Potency was inconclusive: 2 µM [activator, full curve, poor fit]. For `COC1OC2COC(c3ccccc3)OC2C(OC(C)=O)C1OC(C)=O` (stereo not drawn), the Potency was inconclusive: 0.0891 µM [inhibitor, full curve, poor fit]. In the case of `CCNc1ccc(C(=O)OCC(=O)N2c3ccccc3NC(=O)C2(C)C)cc1[N+](=O)[O-]`, the Potency is reported as inconclusive: 25.9 µM [inhibitor, single point]. With `Cc1ccn2c(NC3CCCC3)c(-c3ccccn3)nc2c1` the Potency was inconclusive: 35.5 µM [inhibitor, single point]. For `O=C(NNC(=O)C12CC3CC(CC(C3)C1)C2)[C@@H]1C[C@H]1c1ccccc1`, the Potency was inconclusive: 6.31 µM [inhibitor, partial curve, poor fit]. In the case of `Cc1ccc(Nc2ccc(S(=O)(=O)N3CCOCC3)cc2[N+](=O)[O-])c(C)c1`, the Potency is reported as inconclusive: 15.8 µM [inhibitor, partial curve, poor fit]. With `CCN(CC)CCNC(=O)c1ccc2c(=O)n3nc(Nc4ccccc4)sc3nc2c1` the Potency was “inactive”. With `Cc1cccc(OCCSc2ncnc3nc[nH]c23)c1` the Potency was “inactive”. For `COc1ccc(S(=O)(=O)N2CCN(C(=O)/C=C/c3ccco3)CC2)cc1`, the Potency was inconclusive: 10 µM [activator, partial curve, poor fit]. In the case of `CCC(C)NCCOCCOc1ccc(Br)cc1C` (stereo not drawn), the Potency is reported as inconclusive: 22.4 µM [inhibitor, single point]. With `COCc1ccc(C(=O)N2CCCC(C(=O)c3ccc(SC)cc3)C2)s1` (stereo not drawn) the Potency was “inactive”. For `Cc1ccc(S(=O)(=O)c2nc(-c3ccc(F)cc3)oc2SCC(N)=O)cc1`, the Potency was inconclusive: 0.651 µM [activator, single point]. For `O=C(Nc1ccccn1)c1ccc(=O)[nH]n1`, the Potency was “inactive”. In the case of `COc1ccc(C2CC(c3ccccc3)=NN2C(=O)CSc2nccc(=O)[nH]2)cc1` (stereo not drawn), the Potency is reported as inconclusive: 12.6 µM [activator, single point]. For `Cc1ccc(S(=O)(=O)N2CCCCC2C(=O)N2CCN(Cc3ccccc3)CC2)cc1` (stereo not drawn), the Potency was inconclusive: 18.3 µM [inhibitor, partial curve, poor fit]. In the case of `COc1cccc(CN2CCCN(S(=O)(=O)c3ccc(Br)cc3)CC2)c1`, the Potency is reported as inconclusive: 16.4 µM [inhibitor, single point]. For `O=c1cc(-c2ccccc2)nc2c(-c3ccccc3)c(C(F)(F)F)[nH]n12`, the Potency was inconclusive: 11.2 µM [inhibitor, partial curve, poor fit]. For `NC(=O)c1cnn(-c2cc(Oc3ccccc3)ncn2)c1N`, the Potency was inconclusive: 10 µM [inhibitor, partial curve, poor fit]. With `O=C(O)c1ccc(N=NNc2cccc([N+](=O)[O-])c2)cc1` the Potency was inconclusive: 6.31 µM [inhibitor, partial curve, poor fit]. With `Cc1c(-c2nc(-c3ccc4c(c3)OCO4)no2)nnn1-c1cccc(C(F)(F)F)c1` the Potency was “inactive”. For `C=CCN(CC=C)Cc1c(O)ccc2c(=O)c(-c3ccccc3)coc12`, the Potency was inconclusive: 7.08 µM [inhibitor, full curve]. With `CC(=O)Nc1ccc(S(=O)(=O)NCC2CCCO2)cc1` (stereo not drawn) the Potency was inconclusive: 35.5 µM [activator, single point]. For `CC(=O)c1ccc(S(=O)(=O)N2CCN(C(C)=O)CC2)cc1`, the Potency was “inactive”. For `CC(C)(C)NC(=O)NC(=O)COC(=O)c1cccc(OC(F)F)c1`, the Potency was inconclusive: 7.08 µM [activator, partial curve, poor fit]. In the case of `Cc1cc(C)c2cc(CN(Cc3ccco3)C(=O)NCc3ccccc3)c(=O)[nH]c2c1`, the Potency is reported as inconclusive: 22.4 µM [inhibitor, single point]. In the case of `Cc1cc(NC(=O)c2ccc(Cl)cc2)cc(C)c1OCC(=O)N1CCOCC1`, the Potency is reported as inconclusive: 35.5 µM [inhibitor, single point]. With `CC(=O)Oc1ccc(C(=O)OCC(=O)c2c(N)n(C)c(=O)n(C)c2=O)cc1OC(C)=O` the Potency was “inactive”. With `CN(C(=O)CSc1nnc(NC2CCCCC2)s1)C1CCS(=O)(=O)C1` (stereo not drawn) the Potency was “inactive”. For `COc1ccc(NC(=O)CC2Nc3ccccc3NC2=O)c([N+](=O)[O-])c1` (stereo not drawn), the Potency was “inactive”. For `O=C(CSc1nnc(-c2ccccc2F)n1C1CCCCC1)N1CCCC1`, the Potency was inconclusive: 9.2 µM [inhibitor, partial curve]. For `CCOc1ccc(Oc2ccc(C(F)(F)F)cc2N)cc1`, the Potency was inconclusive: 12.6 µM [inhibitor, partial curve]. For `C/C(=N\NC(=O)c1ccc([N+](=O)[O-])cc1)c1c(O)cc(C)oc1=O`, the Potency was “inactive”. In the case of `C=CCCC1CN(CCCC)S(=O)(=O)c2c(F)cccc2O1` (stereo not drawn), the Potency is reported as inconclusive: 12.5 µM [activator, partial curve, poor fit]. With `CC(=O)c1cccc(OC(=O)Oc2cccc(C(C)=O)c2)c1` the Potency was “inactive”. For `COc1ccc(C(=O)c2cc([N+](=O)[O-])ccc2N2CCOCC2)cc1`, the Potency was inconclusive: 0.1 µM [inhibitor, full curve, poor fit]. In the case of `CC(=O)NC1=NN(C(C)=O)C(C)(c2cccs2)S1` (stereo not drawn), the Potency is reported as inconclusive: 1.58 µM [inhibitor, full curve, poor fit]. With `CCCc1nc2ccccc2c(C(=O)N(CC)CC(=O)NCc2cccs2)c1CC` the Potency was “inactive”. In the case of `O=C(COc1ccccc1)N1CCN=C1SCc1ccccc1F`, the Potency is reported as inconclusive: 8.91 µM [inhibitor, partial curve, poor fit]. For `COCc1ccc(CN2CCc3c([nH]c4ccccc34)C2C(C)(C)C)o1` (stereo not drawn), the Potency was inconclusive: 10 µM [inhibitor, partial curve, poor fit]. For `CC1=CC(=C2C(=O)NC(=S)NC2=O)C=C(C(F)(F)F)N1Cc1ccccc1`, the Potency was inconclusive: 0.562 µM [inhibitor, full curve, poor fit]. In the case of `COc1ccccc1C(=O)COC(=O)C1CCN(S(=O)(=O)c2ccc(C)c(C)c2)CC1`, the Potency is reported as inconclusive: 10 µM [inhibitor, partial curve, poor fit]. With `Cc1ccc2cccc(NC(=O)C(C)(C)Oc3ccc(Br)cc3)c2n1` the Potency was “inactive”. With `S=C(NCCC1=CCCCC1)NCc1ccco1` the Potency was inconclusive: 35.5 µM [inhibitor, single point]. In the case of `O=C(Nc1cc(Cl)ccc1O)c1cc2n(n1)C(C(F)(F)F)CC(c1ccc3c(c1)OCO3)N2` (stereo not drawn), the Potency is reported as inconclusive: 15.8 µM [inhibitor, partial curve, poor fit]. For `COc1ccc(C2=NN(C(=O)CSc3nc(=O)n4cc(C)ccc4n3)C(c3ccc(C)cc3)C2)cc1` (stereo not drawn), the Potency was “inactive”. For `CCn1cc2nc(SCc3ccccc3F)n(Cc3ccc(C)cc3)c(=O)c2n1`, the Potency was inconclusive: 5.62 µM [inhibitor, single point]. In the case of `Nc1ccccc1NC1CCCCC1`, the Potency is reported as “inactive”. In the case of `COc1ccc(CC(=O)N/N=C(\C)CC(=O)Nc2ccc(N(C)C)cc2)cc1OC`, the Potency is reported as “inactive”. In the case of `Cc1ccc(CN2CCc3nc(SCC(=O)Nc4cccc(C)c4C)[nH]c(=O)c3C2)cc1`, the Potency is reported as inconclusive: 5.62 µM [inhibitor, single point]. For `CCN1C(=O)/C(=C2/Sc3ccccc3N2CC)S/C1=N\c1ncn[nH]1`, the Potency was inconclusive: 11.2 µM [inhibitor, single point]. In the case of `O=C(CSc1n[nH]c(-c2ccncc2)n1)c1ccccc1`, the Potency is reported as inconclusive: 3.26 µM [inhibitor, full curve]. For `CCc1ccc(C(=O)Nc2ccc3nn(-c4ccc(C)c(Cl)c4)nc3c2)cc1`, the Potency was “inactive”. In the case of `COc1ccc(-c2cn3c(n2)sc2cc(C(=O)Nc4cc(Cl)ccc4C)ccc23)cc1`, the Potency is reported as “inactive”. In the case of `COc1cc(/C=C2\SC(=S)NC2=O)ccc1OS(=O)(=O)c1ccccc1`, the Potency is reported as “inactive”. With `O=C1CSC(c2ccc(F)cc2)N1c1ccccc1F` (stereo not drawn) the Potency was “inactive”. For `Cc1ccc(N2C(=O)N(CC(=O)NCc3ccc(Cl)cc3)C(=O)C2C)cc1` (stereo not drawn), the Potency was inconclusive: 13 µM [inhibitor, partial curve, poor fit]. For `CNC(=O)O/N=C(\N)Cc1csc2ccc(Cl)cc12`, the Potency was inconclusive: 25.1 µM [inhibitor, partial curve, poor fit]. With `Cc1ccc2c(c1)C1CN(C)CCC1N2C(=O)c1ccccc1NS(=O)(=O)c1ccc(F)cc1C` (stereo not drawn) the Potency was inconclusive: 0.0041 µM [inhibitor, full curve, poor fit]. For `Cc1cccc(-n2c(O)c(C=Nc3ccc(O)cc3)c3ccccc3c2=O)n1`, the Potency was inconclusive: 9.2 µM [inhibitor, partial curve]. For `COc1ccc(COc2cccc3ccc(C)nc23)cc1F`, the Potency was inconclusive: 35.5 µM [inhibitor, partial curve, poor fit]. With `Cc1cc(C(=O)OCC(=O)N2CCN(c3ccccc3)CC2)c2ccccc2n1` the Potency was inconclusive: 35.5 µM [activator, single point]. With `CCC(C)NC(=O)Nc1ccc2c(c1)N(C)C(=O)c1ccccc1S2` (stereo not drawn) the Potency was “inactive”. For `CCC(CC)C(=O)c1c[nH]c(C(=O)NCc2ccco2)c1`, the Potency was inconclusive: 20.6 µM [inhibitor, partial curve]. For `COc1cccc(-c2cc(C(=O)NCC3CCCO3)c3cc(C)cc(C)c3n2)c1` (stereo not drawn), the Potency was inconclusive: 0.501 µM [inhibitor, partial curve, poor fit]. With `Cc1cc(C[n+]2cc(Br)ccc2N)c2ncccc2c1` the Potency was “inactive”. In the case of `CCCCN(CCCC)CCNC(=O)CSCc1ccc(C)cc1`, the Potency is reported as “inactive”. In the case of `CCCn1cc(S(=O)(=O)c2ccccc2)c(=O)c2cc(CC)ccc21`, the Potency is reported as inconclusive: 17.8 µM [inhibitor, single point].
